Measured values published in ChEMBL document CHEMBL3436046, “Predictive model for L-type channel inhibition: multichannel block in QT prolongation risk assessment” (J Appl Toxicol, 2012).
pIC50: −log10 of the molar value.

The chains behind the UniProt entries cited, without tags or fusion partners.
UniProt P22002, whole entry: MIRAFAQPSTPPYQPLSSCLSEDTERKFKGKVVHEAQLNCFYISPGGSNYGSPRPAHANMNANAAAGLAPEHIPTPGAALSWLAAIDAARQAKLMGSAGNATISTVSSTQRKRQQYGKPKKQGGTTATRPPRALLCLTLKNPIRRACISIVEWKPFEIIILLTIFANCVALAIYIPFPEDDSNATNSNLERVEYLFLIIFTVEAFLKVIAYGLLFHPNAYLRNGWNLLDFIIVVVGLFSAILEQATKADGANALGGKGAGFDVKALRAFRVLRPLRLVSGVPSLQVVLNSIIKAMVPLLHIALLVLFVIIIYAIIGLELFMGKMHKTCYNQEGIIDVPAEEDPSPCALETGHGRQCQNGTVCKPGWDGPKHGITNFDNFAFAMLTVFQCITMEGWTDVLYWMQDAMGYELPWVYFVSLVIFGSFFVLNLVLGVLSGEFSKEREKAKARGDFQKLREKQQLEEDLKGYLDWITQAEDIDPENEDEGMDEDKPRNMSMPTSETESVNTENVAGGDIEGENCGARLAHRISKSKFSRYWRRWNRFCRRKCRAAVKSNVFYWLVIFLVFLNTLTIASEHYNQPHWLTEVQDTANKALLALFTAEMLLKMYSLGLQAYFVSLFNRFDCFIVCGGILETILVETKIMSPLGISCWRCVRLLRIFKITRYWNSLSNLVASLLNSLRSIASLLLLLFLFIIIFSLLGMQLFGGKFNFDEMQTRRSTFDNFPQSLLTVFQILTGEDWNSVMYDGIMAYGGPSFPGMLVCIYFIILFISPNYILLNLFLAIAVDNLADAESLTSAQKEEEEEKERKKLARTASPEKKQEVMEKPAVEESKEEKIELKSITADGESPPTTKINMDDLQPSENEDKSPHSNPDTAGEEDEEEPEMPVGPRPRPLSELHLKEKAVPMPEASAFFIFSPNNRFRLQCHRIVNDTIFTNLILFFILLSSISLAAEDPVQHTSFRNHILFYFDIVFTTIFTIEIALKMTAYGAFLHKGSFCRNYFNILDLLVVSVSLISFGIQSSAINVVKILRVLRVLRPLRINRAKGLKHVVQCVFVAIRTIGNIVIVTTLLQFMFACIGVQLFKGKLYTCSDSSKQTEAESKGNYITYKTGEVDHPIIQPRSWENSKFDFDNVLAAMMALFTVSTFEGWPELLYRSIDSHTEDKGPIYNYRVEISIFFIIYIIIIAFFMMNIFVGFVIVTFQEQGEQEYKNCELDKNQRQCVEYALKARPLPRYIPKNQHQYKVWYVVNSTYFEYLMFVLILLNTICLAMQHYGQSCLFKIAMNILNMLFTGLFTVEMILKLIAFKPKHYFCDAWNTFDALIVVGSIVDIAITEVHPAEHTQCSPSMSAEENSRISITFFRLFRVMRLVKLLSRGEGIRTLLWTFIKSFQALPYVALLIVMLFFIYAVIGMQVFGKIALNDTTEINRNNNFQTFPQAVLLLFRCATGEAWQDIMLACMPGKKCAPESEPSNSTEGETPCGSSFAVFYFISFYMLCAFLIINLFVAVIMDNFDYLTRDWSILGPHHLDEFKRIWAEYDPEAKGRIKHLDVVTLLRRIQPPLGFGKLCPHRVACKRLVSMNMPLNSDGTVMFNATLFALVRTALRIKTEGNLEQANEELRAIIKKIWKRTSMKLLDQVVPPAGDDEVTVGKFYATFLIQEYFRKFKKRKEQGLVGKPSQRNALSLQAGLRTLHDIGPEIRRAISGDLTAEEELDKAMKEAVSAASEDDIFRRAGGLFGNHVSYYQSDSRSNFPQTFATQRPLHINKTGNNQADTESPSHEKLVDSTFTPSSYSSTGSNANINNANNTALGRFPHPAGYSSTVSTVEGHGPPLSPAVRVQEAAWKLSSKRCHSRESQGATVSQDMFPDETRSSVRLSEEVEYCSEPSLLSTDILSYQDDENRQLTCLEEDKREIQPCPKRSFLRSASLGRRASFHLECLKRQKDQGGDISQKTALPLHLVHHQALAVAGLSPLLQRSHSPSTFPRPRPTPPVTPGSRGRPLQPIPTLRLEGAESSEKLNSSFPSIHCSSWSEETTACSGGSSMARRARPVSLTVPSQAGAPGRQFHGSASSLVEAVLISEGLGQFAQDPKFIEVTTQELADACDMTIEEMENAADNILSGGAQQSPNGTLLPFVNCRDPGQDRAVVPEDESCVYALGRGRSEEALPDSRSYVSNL
UniProt Q13936, whole entry: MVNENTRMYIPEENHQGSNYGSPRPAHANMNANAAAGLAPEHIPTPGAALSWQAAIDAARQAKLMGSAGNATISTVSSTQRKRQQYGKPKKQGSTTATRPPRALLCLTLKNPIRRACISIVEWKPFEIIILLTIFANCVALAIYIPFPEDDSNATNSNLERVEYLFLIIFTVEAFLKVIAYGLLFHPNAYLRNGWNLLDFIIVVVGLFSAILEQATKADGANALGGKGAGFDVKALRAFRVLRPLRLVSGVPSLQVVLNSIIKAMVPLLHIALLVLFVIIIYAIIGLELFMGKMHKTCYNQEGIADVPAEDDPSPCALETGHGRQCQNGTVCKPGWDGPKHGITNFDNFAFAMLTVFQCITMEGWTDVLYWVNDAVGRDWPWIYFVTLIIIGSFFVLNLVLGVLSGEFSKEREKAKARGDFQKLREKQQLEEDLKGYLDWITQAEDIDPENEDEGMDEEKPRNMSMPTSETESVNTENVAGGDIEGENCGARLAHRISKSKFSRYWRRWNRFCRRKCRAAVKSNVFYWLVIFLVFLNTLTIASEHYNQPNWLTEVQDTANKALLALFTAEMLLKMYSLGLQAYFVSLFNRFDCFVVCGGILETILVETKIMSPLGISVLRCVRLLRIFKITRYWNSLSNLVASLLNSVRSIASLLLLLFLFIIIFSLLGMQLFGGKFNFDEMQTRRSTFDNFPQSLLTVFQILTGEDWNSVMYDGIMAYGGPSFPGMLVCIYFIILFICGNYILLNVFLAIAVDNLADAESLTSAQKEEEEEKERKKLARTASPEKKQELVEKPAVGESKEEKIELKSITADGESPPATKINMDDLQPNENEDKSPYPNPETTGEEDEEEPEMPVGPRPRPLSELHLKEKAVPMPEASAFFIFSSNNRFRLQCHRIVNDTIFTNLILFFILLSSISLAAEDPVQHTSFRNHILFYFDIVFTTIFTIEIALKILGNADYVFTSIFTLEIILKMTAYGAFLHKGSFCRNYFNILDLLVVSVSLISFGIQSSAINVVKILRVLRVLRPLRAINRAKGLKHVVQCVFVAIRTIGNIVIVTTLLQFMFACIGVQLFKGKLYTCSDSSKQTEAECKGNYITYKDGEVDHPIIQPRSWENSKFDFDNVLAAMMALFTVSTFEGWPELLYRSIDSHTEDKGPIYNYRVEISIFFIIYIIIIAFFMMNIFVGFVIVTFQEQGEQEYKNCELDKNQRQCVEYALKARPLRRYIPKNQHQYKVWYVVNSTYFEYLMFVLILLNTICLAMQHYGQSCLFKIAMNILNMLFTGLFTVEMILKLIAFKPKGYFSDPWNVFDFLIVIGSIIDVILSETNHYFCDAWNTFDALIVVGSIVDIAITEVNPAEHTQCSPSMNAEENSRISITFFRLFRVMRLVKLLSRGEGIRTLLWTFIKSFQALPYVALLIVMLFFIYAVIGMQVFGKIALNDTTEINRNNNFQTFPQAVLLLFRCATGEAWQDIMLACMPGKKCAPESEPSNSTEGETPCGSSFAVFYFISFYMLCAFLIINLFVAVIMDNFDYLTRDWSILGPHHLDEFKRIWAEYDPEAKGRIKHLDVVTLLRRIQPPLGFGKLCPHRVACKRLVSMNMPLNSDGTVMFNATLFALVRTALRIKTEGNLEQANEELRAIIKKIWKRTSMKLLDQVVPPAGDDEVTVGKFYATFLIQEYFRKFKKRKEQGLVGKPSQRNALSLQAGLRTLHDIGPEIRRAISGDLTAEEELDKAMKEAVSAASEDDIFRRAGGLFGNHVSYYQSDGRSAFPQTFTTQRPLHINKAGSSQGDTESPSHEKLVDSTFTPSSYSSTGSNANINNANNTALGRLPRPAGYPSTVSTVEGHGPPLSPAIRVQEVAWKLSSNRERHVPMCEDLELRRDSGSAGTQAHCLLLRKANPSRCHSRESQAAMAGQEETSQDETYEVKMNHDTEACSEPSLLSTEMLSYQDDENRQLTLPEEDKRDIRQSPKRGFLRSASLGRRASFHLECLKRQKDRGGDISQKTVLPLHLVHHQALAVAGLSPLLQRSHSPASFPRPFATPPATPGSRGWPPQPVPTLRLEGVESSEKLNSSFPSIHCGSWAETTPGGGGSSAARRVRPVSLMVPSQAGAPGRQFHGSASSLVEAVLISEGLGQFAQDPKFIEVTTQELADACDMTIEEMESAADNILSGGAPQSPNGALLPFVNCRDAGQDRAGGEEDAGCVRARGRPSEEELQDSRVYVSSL
UniProt O35505, whole entry: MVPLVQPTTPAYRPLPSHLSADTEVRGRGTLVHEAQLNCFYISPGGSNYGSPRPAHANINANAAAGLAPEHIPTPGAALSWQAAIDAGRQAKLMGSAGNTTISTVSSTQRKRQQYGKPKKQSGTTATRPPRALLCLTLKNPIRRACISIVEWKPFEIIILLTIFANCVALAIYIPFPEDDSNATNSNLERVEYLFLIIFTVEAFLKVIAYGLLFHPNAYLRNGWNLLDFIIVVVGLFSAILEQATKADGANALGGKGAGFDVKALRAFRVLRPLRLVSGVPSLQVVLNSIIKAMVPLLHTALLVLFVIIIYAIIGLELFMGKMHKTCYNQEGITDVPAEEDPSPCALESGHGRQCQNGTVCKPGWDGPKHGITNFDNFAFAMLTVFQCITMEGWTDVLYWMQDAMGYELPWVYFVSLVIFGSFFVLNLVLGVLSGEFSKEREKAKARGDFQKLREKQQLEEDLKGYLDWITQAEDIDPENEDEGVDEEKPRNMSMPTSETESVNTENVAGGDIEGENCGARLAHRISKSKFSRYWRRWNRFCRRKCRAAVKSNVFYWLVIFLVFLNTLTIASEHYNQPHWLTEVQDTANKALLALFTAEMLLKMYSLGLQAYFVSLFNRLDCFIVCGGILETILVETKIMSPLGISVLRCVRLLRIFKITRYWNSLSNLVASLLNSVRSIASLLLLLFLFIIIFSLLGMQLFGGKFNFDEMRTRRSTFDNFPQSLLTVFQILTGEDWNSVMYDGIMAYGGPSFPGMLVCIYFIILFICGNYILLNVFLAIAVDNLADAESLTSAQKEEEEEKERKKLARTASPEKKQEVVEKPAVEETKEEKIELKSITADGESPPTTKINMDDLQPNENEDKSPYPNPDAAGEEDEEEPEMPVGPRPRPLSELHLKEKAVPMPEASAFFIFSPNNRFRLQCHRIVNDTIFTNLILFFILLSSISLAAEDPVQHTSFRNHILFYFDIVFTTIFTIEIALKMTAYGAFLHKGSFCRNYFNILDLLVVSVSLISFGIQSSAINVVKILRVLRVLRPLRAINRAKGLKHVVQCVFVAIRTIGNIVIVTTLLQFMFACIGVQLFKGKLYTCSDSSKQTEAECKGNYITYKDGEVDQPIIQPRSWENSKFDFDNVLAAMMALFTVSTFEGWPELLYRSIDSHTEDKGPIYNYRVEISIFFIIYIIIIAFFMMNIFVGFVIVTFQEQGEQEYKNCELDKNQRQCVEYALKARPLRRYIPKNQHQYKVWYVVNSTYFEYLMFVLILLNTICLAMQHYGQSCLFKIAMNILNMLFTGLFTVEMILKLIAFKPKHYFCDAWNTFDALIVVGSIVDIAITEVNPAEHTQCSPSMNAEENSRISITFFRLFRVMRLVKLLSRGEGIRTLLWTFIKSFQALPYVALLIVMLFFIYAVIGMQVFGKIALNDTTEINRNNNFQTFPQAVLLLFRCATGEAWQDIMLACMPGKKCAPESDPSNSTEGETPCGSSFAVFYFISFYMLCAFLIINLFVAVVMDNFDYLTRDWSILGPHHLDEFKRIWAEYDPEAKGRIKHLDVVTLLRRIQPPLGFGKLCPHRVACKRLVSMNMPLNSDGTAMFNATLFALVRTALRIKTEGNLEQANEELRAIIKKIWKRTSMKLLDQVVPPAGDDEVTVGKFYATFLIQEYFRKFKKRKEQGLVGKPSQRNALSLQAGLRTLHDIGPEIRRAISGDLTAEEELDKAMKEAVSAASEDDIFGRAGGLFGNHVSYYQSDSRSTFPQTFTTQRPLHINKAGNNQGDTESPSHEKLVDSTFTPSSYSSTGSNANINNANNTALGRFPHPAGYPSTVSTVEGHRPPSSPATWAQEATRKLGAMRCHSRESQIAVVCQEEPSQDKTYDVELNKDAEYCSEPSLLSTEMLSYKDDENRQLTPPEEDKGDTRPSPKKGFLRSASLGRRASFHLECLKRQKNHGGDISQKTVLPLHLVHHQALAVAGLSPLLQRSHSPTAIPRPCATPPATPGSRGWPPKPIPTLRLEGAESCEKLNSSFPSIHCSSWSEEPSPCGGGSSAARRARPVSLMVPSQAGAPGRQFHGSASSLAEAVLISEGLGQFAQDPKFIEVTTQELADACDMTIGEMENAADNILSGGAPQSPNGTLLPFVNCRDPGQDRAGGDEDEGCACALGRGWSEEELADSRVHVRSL

Columns and labels:
[1] = target: Voltage-dependent L-type calcium channel subunit alpha-1C (Rattus norvegicus, UniProt P22002); experiment: Inhibition of L-type calcium channel measured using whole-cell patch clamp in rat ventricular myocytes
[2] = target: Voltage-dependent L-type calcium channel subunit alpha-1C (Homo sapiens, UniProt Q13936); experiment: Inhibition of L-type calcium channel measured using […] kidney cells heterologically expressing alpha-1C subunit; type: functional, cell-based, HEK293; design: ca sol conc 10 mM, temp room
[3] = target: Voltage-dependent L-type calcium channel subunit alpha-1C (Cavia porcellus, UniProt O35505); experiment: Inhibition of L-type calcium channel measured using whole-cell patch clamp in guinea pig ventricular myocytes

With CNCCCC12CCC(c3ccccc31)c1ccccc12 [MAPROTILINE] as the molecule, how does the pIC50 [1] read?
The pIC50 was 4.51.

How did the pIC50 [2] turn out when CC(C)NCC(O)COc1cccc2ccccc12 (stereo not drawn) [PROPRANOLOL] was run?
The pIC50 was 4.68.

How did the pIC50 [3] turn out when Cc1nc2n(c(=O)c1CCN1CCC(c3noc4cc(F)ccc34)CC1)CCCC2 [RISPERIDONE] was run?
The pIC50 was 3.94.
